Results: the supplement of paper PMC10849652
The list shows a part of the results.

The chains behind the UniProt entries cited, without tags or fusion partners. Where a name states a change or a piece, a line headed by the entry shows the natural chain unless it says otherwise.
UniProt P21796, whole entry, looked up: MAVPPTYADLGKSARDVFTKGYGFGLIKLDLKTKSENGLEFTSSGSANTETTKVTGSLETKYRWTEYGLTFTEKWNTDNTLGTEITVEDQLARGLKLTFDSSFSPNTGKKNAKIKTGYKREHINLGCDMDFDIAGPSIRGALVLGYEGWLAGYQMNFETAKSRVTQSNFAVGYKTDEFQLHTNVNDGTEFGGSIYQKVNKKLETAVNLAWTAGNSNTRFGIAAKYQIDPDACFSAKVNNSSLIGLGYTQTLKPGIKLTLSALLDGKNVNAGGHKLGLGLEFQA
UniProt O00258: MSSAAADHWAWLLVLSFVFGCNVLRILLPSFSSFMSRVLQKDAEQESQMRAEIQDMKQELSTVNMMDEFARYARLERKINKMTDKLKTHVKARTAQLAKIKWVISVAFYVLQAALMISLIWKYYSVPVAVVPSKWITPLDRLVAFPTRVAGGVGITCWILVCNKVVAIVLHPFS
UniProt Q9Y3C0: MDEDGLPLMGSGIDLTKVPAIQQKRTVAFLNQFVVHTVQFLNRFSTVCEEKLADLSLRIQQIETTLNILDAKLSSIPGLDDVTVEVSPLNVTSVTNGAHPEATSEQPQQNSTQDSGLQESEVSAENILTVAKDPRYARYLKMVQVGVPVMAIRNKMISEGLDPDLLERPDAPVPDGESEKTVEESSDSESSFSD
UniProt O75717: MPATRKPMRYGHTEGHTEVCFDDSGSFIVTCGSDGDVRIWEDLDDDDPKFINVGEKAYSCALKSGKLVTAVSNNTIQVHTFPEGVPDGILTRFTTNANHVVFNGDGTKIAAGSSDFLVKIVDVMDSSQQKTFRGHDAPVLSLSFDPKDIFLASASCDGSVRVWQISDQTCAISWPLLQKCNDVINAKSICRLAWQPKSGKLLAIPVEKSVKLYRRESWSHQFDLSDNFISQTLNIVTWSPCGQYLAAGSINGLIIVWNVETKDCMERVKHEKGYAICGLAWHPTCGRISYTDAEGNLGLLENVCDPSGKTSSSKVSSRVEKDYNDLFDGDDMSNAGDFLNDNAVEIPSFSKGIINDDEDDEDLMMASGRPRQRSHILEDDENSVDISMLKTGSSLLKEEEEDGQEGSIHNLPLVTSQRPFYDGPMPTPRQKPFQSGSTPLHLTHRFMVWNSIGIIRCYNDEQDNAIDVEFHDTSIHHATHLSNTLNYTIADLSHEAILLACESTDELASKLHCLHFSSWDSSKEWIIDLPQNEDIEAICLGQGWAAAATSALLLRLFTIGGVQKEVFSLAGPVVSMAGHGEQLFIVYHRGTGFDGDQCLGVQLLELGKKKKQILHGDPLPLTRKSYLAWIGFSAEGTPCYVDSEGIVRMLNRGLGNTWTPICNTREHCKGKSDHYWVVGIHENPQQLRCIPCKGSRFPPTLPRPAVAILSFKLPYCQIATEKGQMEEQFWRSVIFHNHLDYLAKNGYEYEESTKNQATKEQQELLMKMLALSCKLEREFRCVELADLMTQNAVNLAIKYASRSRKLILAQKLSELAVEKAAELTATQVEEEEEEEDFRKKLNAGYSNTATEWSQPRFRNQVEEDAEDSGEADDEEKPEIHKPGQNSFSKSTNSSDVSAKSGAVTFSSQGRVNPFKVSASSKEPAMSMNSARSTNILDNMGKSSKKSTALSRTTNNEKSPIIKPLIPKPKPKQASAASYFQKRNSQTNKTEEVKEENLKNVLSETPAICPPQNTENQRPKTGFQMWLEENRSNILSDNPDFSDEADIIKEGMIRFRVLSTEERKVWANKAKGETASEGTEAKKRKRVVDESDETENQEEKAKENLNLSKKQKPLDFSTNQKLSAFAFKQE
UniProt Q3ZAQ7: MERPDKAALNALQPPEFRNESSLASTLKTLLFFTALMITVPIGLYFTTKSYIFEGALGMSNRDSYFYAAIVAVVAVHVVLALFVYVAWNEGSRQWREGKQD
UniProt Q92558: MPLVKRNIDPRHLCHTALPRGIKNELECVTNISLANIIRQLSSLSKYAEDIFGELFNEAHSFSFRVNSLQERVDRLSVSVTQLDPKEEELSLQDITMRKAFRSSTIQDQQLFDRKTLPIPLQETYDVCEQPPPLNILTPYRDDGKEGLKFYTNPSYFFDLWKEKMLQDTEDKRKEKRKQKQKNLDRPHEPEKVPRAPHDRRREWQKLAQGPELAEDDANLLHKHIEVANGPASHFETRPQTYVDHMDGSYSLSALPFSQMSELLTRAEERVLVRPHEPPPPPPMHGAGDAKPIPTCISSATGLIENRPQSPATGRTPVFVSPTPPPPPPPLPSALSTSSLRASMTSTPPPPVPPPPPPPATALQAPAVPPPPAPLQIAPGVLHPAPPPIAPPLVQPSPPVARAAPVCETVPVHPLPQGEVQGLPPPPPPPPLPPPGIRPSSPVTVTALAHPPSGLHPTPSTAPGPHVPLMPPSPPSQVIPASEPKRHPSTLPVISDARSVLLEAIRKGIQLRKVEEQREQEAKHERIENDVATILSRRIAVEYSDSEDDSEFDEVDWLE
UniProt A5D8V6: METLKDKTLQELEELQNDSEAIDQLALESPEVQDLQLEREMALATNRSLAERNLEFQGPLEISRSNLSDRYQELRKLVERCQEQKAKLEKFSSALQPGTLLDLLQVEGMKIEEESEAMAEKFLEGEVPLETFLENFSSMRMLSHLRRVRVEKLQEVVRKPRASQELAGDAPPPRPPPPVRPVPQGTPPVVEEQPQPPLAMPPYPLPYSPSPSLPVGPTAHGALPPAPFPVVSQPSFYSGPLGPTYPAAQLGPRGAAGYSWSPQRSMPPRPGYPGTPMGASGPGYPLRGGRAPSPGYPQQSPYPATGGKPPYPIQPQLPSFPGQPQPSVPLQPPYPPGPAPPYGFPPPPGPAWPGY
UniProt A4D1P6: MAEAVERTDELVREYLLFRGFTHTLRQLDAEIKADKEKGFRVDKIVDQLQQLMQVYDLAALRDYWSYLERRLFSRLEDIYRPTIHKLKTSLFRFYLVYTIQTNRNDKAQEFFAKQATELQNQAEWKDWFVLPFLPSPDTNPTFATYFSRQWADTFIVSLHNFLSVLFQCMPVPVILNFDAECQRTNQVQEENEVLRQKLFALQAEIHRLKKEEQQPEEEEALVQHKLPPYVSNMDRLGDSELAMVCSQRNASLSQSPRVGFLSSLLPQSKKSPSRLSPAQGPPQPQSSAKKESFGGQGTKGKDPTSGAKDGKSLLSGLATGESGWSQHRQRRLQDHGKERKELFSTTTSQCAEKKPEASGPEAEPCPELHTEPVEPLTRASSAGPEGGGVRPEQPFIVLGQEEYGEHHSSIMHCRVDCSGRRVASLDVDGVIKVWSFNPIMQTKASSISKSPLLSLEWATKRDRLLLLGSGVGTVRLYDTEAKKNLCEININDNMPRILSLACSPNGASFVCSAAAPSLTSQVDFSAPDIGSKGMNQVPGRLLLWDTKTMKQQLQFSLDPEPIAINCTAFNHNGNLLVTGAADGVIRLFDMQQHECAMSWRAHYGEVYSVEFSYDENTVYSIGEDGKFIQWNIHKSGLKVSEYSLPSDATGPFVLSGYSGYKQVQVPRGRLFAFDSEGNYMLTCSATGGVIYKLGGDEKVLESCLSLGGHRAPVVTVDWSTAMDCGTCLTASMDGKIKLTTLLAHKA
UniProt Q9H7M9, whole entry, looked up: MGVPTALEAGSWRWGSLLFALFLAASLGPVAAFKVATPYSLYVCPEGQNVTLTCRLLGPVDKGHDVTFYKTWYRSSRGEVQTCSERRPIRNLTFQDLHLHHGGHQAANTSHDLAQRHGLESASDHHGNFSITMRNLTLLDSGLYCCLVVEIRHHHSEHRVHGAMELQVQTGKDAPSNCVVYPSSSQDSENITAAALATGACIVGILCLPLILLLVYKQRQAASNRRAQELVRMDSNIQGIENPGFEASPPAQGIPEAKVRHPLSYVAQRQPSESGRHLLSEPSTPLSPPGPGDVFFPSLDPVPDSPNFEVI
UniProt Q9P253: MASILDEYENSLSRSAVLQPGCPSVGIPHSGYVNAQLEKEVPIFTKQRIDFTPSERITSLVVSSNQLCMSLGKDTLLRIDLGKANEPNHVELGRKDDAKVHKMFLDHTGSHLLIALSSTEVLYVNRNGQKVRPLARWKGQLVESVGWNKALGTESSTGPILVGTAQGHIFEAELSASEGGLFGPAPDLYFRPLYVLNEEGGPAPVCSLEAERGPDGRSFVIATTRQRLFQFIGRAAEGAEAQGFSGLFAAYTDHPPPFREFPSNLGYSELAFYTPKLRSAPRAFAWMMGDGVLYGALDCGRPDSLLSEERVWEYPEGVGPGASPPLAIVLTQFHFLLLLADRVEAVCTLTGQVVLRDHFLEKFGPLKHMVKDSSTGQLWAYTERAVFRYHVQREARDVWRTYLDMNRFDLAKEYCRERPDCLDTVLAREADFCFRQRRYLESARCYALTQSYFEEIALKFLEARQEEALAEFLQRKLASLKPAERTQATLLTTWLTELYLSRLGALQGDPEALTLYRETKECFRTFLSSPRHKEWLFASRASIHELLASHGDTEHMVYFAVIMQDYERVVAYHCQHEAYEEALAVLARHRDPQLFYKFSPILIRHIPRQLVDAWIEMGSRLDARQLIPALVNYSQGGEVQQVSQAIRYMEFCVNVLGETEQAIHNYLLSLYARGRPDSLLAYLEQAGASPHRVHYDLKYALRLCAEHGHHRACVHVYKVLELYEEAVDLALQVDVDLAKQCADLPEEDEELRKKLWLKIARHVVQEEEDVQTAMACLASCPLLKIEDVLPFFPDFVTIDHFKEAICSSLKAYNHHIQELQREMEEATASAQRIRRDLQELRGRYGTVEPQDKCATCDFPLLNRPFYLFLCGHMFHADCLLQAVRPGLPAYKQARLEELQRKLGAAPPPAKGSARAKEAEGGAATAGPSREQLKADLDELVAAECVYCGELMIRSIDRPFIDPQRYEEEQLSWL
UniProt Q14135: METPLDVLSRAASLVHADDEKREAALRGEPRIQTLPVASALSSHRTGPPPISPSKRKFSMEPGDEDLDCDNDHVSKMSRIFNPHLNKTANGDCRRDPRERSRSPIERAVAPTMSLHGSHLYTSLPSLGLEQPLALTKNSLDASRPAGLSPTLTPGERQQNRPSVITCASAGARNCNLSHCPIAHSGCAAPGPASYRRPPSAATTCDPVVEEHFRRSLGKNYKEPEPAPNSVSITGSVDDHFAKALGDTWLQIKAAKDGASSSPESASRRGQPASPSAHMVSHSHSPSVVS
UniProt A6NGB9: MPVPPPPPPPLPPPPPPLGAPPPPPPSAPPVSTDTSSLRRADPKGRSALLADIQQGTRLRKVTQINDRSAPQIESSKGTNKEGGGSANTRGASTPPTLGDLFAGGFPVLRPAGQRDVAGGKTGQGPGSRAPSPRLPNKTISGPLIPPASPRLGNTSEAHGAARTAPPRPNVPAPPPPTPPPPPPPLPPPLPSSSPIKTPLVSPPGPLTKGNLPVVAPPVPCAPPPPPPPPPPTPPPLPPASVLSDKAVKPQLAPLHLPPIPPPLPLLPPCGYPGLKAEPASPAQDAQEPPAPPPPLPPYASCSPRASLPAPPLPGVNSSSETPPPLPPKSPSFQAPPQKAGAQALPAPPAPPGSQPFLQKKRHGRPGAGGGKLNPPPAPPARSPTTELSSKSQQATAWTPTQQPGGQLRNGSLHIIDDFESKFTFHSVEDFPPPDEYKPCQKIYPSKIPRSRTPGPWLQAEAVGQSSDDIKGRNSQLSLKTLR
UniProt Q5JSH3: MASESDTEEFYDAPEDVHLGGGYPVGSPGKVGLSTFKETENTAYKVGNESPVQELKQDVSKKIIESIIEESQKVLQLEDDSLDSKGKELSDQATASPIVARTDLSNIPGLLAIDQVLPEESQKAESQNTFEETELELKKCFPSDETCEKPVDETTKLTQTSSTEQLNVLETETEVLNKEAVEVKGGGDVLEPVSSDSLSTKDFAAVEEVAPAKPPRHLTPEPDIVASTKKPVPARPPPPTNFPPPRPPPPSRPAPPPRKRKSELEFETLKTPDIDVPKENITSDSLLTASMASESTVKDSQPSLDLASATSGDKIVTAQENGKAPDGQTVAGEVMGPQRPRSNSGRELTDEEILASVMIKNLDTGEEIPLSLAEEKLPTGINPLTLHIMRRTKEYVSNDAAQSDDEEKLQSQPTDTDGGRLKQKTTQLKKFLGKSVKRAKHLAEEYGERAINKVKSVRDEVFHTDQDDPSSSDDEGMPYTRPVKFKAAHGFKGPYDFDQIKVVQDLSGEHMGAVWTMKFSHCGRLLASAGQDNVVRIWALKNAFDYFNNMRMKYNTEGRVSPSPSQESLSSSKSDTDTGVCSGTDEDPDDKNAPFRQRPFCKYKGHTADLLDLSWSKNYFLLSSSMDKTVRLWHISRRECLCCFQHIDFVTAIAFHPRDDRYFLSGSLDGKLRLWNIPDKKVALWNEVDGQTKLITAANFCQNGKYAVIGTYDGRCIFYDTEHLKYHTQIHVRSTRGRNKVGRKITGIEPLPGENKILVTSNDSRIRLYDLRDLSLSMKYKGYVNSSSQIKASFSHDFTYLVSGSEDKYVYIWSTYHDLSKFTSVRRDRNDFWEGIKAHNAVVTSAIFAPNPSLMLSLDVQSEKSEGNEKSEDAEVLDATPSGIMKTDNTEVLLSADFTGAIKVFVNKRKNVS

What was measured:
Experiment in all cases: log2 fold change, soluble protein after heating vs DMSO (PISA); higher = thermal stabilisation; K562 cells, 10 uM, 30 min; active = over 0.2 and 3.5 SD of the protein, either way, in both replicates (recomputed)
[1] = compound: COC1=CC=C(C=C1)CN2C=CC3=C2C=C(C=C3)C(=O)NO
Summary of the method: (§1)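 Quantification of soluble protein used TMTpro 16plex LC-MS/MS, with channel sums equalised. Samples were the supernatant after 21,000xg for 90 min of pooled aliquots from K562 cells (2×10^6 cells/mL) treated with 10 μM compound for 30 min, heated for 3 min over 48°C-58°C, and extracted in PBS with 0.5% NP-40 at 4°C. Values, from duplicates, describe thermal stability against control samples on a log2 fold-change scale.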

filanesib = compound: CON(C)C(=O)N1N=C(c2cc(F)ccc2F)S[C@@]1(CCCN)c1ccccc1 [filanesib]
Summary of the method: as §1

zotarolimus = compound: CO[C@H]1C[C@@H]2CC[C@@H](C)[C@@](O)(O2)C(=O)C(=O)N2CCCC[C@H]2C(=O)O[C@H]([C@H](C)C[C@@H]2CC[C@H](n3cnnn3)[C@H](OC)C2)CC(=O)[C@H](C)/C=C(\C)[C@@H](O)[C@@H](OC)C(=O)[C@H](C)C[C@H](C)/C=C/C=C/C=C/1C [zotarolimus]
Summary of the method: as §1

idasanutlin = compound: COc1cc(C(=O)O)ccc1NC(=O)[C@@H]1N[C@@H](CC(C)(C)C)[C@](C#N)(c2ccc(Cl)cc2F)[C@H]1c1cccc(Cl)c1F [idasanutlin]
Summary of the method: as §1

alisertib = compound: COc1cc(Nc2ncc3c(n2)-c2ccc(Cl)cc2C(c2c(F)cccc2OC)=NC3)ccc1C(=O)O [alisertib]
Summary of the method: as §1

[2] = compound: COc1cc2nc(-c3cc(F)ccc3O)nc(N[C@@H]3CNC[C@H]3C(C)(C)O)c2cc1OC
Summary of the method: as §1

gefitinib = compound: COc1cc2ncnc(Nc3ccc(F)c(Cl)c3)c2cc1OCCCN1CCOCC1 [gefitinib]
Summary of the method: as §1

[3] = compound: COc1cccc2cc(-c3nc([C@H]4CC[C@H](C(=O)O)CC4)n4ncnc(N)c34)[nH]c12
Summary of the method: as §1

lapatinib = compound: CS(=O)(=O)CCNCc1ccc(-c2ccc3ncnc(Nc4ccc(OCc5cccc(F)c5)c(Cl)c4)c3c2)o1 [lapatinib]
Summary of the method: as §1

pictilisib = compound: CS(=O)(=O)N1CCN(Cc2cc3nc(-c4cccc5[nH]ncc45)nc(N4CCOCC4)c3s2)CC1 [pictilisib]
Summary of the method: as §1

Measured: log2 fold change

WNK1 isoform 7 (UniProt Q9H4A3)
inactive: [1] -0.034 | filanesib -0.003 | zotarolimus -0.006 | idasanutlin -0.026 | alisertib -0.026 | [2] 0.082 | gefitinib 0 | [3] 0.032 | lapatinib -0.002 | pictilisib 0

VDAC1 (UniProt P21796)
inactive: [1] 0 | filanesib -0.036 | zotarolimus -0.01 | idasanutlin -0.004 | alisertib -0.033 | [2] -0.023 | gefitinib -0.007 | [3] 0.052 | lapatinib 0 | pictilisib 0.002

WRB (UniProt O00258)
inactive: [1] -0.036 | filanesib -0.041 | zotarolimus -0.019 | idasanutlin -0.032 | alisertib -0.031 | [2] -0.066 | gefitinib 0.012 | [3] 0.051 | lapatinib 0.03 | pictilisib 0.094

WDR3 (UniProt Q9UNX4)
inactive: [1] -0.078 | filanesib 0.398 | zotarolimus 0.052 | idasanutlin 0.185 | alisertib -0.156 | [2] -0.018 | gefitinib -0.28 | [3] -0.231 | lapatinib -0.005 | pictilisib -0.072

WASHC3 (UniProt Q9Y3C0)
inactive: [1] 0.108 | filanesib -0.061 | zotarolimus 0.001 | idasanutlin 0.068 | alisertib 0.077 | [2] 0.002 | gefitinib -0.014 | [3] 0.042 | lapatinib -0.029 | pictilisib 0.05

VPS25 (UniProt Q9BRG1)
inactive: [1] -0.008 | filanesib -0.049 | zotarolimus 0.051 | idasanutlin -0.04 | alisertib -0.029 | [2] 0.013 | gefitinib 0.015 | [3] 0.045 | lapatinib 0.004 | pictilisib 0.045

VPS36 (UniProt Q86VN1)
inactive: [1] 0.093 | filanesib -0.09 | zotarolimus -0.007 | idasanutlin -0.037 | alisertib 0.013 | [2] 0.009 | gefitinib 0.042 | [3] 0.022 | lapatinib -0.012 | pictilisib -0.053

WDR74 (UniProt Q6RFH5)
inactive: [1] -0.141 | filanesib 0.16 | zotarolimus 0.014 | idasanutlin 0.118 | alisertib -0.131 | [2] 0.036 | gefitinib -0.047 | [3] -0.034 | lapatinib 0.047 | pictilisib -0.09

WIPI2 (UniProt Q9Y4P8)
inactive: [1] -0.073 | filanesib -0.07 | zotarolimus -0.009 | idasanutlin -0.081 | alisertib -0.067 | [2] -0.159 | gefitinib 0.004 | [3] 0.059 | lapatinib -0.006 | pictilisib 0.029

VPS45 (UniProt Q9NRW7)
inactive: [1] -0.002 | filanesib 0.092 | zotarolimus 0.006 | idasanutlin -0.067 | alisertib -0.049 | [2] 0.157 | gefitinib 0.048 | [3] -0.067 | lapatinib 0.019 | pictilisib 0.146

WDHD1 (UniProt O75717)
inactive: [1] 0.013 | filanesib -0.003 | zotarolimus 0.031 | idasanutlin 0.005 | alisertib 0.036 | [2] 0.011 | gefitinib 0.013 | [3] -0.012 | lapatinib 0.006 | pictilisib -0.015

VMA21 isoform 2 (UniProt Q3ZAQ7)
inactive: [1] 0.211 | zotarolimus 0.087 | idasanutlin 0.059 | alisertib -0.075 | [2] -0.21 | gefitinib 0.017 | [3] 0.047 | lapatinib 0.401 | pictilisib -0.352

WIZ (UniProt O95785)
inactive: [1] -0.054 | filanesib -0.001 | zotarolimus -0.014 | idasanutlin 0 | alisertib -0.018 | [2] -0.017 | gefitinib -0.043 | [3] 0.027 | lapatinib 0.014 | pictilisib 0.031

WASF1 (UniProt Q92558)
inactive: [1] -0.031 | zotarolimus 0.019 | idasanutlin -0.056 | alisertib -0.049 | [2] -0.011 | gefitinib 0.078 | [3] 0.154 | lapatinib 0.278 | pictilisib 0.125

VPS37C (UniProt A5D8V6)
inactive: [1] -0.091 | zotarolimus 0.008 | idasanutlin 0.077 | alisertib -0.068 | [2] 0.08 | gefitinib 0.02 | [3] 0.02 | lapatinib -0.012 | pictilisib -0.011

VRK1 (UniProt Q99986)
inactive: [1] 0.098 | filanesib -0.07 | zotarolimus -0.123 | idasanutlin -0.119 | alisertib 0.06 | [2] 0.316 | gefitinib -0.018 | [3] -0.003 | lapatinib -0.059 | pictilisib 0.086

WDR89 (UniProt Q96FK6)
inactive: [1] -0.027 | filanesib -0.019 | zotarolimus -0.026 | idasanutlin 0.063 | alisertib -0.086 | [2] -0.023 | gefitinib 0.006 | [3] 0.021 | lapatinib 0.006 | pictilisib -0.016

VPS13A (UniProt Q96RL7)
inactive: [1] -0.003 | filanesib -0.056 | zotarolimus 0.001 | idasanutlin -0.043 | alisertib 0.002 | [2] 0.015 | gefitinib 0.013 | [3] 0.06 | lapatinib 0.053 | pictilisib 0.01

WDR75 (UniProt Q8IWA0)
inactive: [1] -0.071 | zotarolimus -0.078 | idasanutlin 0.177 | alisertib -0.054 | [2] -0.04 | gefitinib 0.198 | [3] -0.078 | lapatinib -0.011

WDR91 (UniProt A4D1P6)
inactive: [1] 0.103 | zotarolimus 0.039 | idasanutlin 0.099 | alisertib 0.27 | [2] -0.084 | [3] -0.03 | lapatinib 0.133

Looked up one by one from the entries so far, two records:
WDR75 (UniProt Q8IWA0)
inactive: [1] -0.071 | zotarolimus -0.078 | idasanutlin 0.177 | alisertib -0.054 | [2] -0.04 | gefitinib 0.198 | [3] -0.078 | lapatinib -0.011

WDR89 (UniProt Q96FK6)
inactive: [1] -0.027 | filanesib -0.019 | zotarolimus -0.026 | idasanutlin 0.063 | alisertib -0.086 | [2] -0.023 | gefitinib 0.006 | [3] 0.021 | lapatinib 0.006 | pictilisib -0.016

Later entries.

VSIR (UniProt Q9H7M9)
inactive: [1] -0.106 | filanesib 0.048 | zotarolimus -0.107 | alisertib -0.052 | gefitinib 0.013 | [3] 0.045 | pictilisib 0.082

VIRMA (UniProt Q69YN4)
inactive: [1] -0.03 | zotarolimus 0.014 | gefitinib -0.09 | pictilisib 0.11

WARS1 (UniProt G3V5U1)
inactive: [1] -0.557 | filanesib 0.025 | alisertib 0.391 | [3] -0.105

VWF (UniProt P04275)
inactive: [1] 0.131 | idasanutlin 0.068

VPS18 (UniProt Q9P253)
inactive: [1] -0.011 | filanesib 0.009 | zotarolimus 0.024 | idasanutlin -0.053 | alisertib -0.102 | [2] -0.017 | gefitinib -0.028 | [3] -0.041 | lapatinib 0.033 | pictilisib -0.07

WDR53 (UniProt Q7Z5U6)
inactive: [1] 0.027 | filanesib -0.171 | zotarolimus -0.069 | idasanutlin 0.023 | alisertib -0.128 | [2] 0.026 | [3] 0.133 | lapatinib 0.041 | pictilisib -0.049

VMA21 (UniProt Q3ZAQ7)
inactive: [1] -0.069 | filanesib 0.068 | zotarolimus -0.091 | idasanutlin 0.051 | alisertib -0.129 | [2] -0.004 | gefitinib 0.1 | [3] 0.004 | lapatinib 0.013 | pictilisib 0.195

WDR6 (UniProt Q9NNW5)
inactive: [1] -0.054 | filanesib -0.013 | zotarolimus 0.008 | idasanutlin -0.011 | alisertib -0.095 | [2] 0.002 | gefitinib 0.004 | [3] 0.006 | lapatinib 0.037 | pictilisib -0.002

VGLL4 isoform 4 (UniProt Q14135)
inactive: [1] -0.059 | filanesib 0.049 | idasanutlin -0.001 | alisertib -0.104 | [2] 0.002 | gefitinib -0.033 | [3] -0.043 | lapatinib 0.152 | pictilisib 0.003

WIPF3 (UniProt A6NGB9)
inactive: [1] 0.015 | filanesib 0.009 | zotarolimus -0.042 | idasanutlin 0.022 | alisertib 0.075 | [2] -0.025 | gefitinib -0.018 | [3] 0.055 | lapatinib -0.036 | pictilisib -0.193

WDR44 (UniProt Q5JSH3)
inactive: [1] -0.001 | filanesib 0.008 | zotarolimus -0.022 | idasanutlin -0.019 | alisertib -0.023 | [2] 0.02 | gefitinib 0.006 | [3] 0.064 | lapatinib -0.033 | pictilisib 0.043

WDR70 (UniProt Q9NW82)
inactive: [1] -0.014 | filanesib -0.08 | zotarolimus 0.024 | idasanutlin -0.024 | alisertib 0.007 | [2] 0.05 | gefitinib 0.014 | [3] 0.024 | lapatinib -0.011 | pictilisib 0.049
